The results in this text go back to article doi:10.1101/2023.09.30.560269.

Chains of the proteins cited; added tags and fusions are not shown. Residues count along the entry.
UniProt P40189, residues 23-918: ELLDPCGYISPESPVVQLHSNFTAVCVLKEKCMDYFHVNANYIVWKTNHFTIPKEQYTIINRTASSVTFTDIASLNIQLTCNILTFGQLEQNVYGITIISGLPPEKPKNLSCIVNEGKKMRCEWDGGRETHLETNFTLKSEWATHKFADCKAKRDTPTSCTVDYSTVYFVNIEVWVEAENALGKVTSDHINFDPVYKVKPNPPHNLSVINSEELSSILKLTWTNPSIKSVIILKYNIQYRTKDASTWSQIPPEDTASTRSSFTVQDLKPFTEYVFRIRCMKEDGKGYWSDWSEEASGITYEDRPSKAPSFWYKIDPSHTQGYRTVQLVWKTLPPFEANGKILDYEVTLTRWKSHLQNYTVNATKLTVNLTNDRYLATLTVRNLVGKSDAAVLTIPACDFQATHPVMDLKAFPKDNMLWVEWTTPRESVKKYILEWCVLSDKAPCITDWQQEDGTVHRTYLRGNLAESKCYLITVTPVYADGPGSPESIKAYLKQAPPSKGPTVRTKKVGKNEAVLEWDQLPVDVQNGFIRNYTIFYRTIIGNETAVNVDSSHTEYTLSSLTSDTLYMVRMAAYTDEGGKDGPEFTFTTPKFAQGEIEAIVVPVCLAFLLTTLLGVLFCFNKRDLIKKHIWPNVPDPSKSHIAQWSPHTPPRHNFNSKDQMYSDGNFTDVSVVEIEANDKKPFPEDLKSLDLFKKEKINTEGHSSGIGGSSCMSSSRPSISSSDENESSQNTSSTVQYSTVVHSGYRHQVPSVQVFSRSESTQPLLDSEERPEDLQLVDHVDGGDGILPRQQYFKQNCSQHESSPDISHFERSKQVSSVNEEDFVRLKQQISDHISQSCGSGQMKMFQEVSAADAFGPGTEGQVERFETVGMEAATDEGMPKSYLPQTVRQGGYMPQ

The experiment concerns the target T1, LIFR (endogenous, MKN45 cells) (human (endogenous in MKN45)) (UniProt P42702).
T1 sequence: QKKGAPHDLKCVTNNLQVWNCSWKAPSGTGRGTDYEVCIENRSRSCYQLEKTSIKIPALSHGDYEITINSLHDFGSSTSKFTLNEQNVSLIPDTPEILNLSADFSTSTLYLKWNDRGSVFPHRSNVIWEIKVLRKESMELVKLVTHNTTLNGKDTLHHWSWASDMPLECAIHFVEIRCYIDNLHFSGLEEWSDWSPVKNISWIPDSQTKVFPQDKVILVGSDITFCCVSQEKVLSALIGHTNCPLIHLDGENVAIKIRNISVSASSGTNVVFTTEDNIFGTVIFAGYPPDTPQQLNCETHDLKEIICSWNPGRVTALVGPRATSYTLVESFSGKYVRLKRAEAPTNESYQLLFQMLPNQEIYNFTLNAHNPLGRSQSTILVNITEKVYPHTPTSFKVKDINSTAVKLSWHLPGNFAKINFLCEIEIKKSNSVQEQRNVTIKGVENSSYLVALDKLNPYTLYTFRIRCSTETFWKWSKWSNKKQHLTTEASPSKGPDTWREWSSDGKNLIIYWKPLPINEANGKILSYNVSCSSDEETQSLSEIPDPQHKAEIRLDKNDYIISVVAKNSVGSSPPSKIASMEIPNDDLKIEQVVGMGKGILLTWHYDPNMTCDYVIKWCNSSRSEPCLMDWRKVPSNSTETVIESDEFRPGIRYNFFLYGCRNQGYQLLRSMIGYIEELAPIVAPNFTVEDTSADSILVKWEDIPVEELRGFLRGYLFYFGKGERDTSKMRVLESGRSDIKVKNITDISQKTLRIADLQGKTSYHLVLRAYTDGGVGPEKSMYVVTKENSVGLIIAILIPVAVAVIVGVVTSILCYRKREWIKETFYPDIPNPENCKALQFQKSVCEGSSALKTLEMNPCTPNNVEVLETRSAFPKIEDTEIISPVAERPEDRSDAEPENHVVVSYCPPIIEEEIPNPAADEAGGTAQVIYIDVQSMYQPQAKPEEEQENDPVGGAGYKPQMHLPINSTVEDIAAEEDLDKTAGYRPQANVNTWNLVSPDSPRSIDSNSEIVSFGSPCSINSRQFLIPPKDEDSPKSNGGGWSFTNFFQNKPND
As to the kind of experiment: co-IP.

Results are given in words; binding and its absence hold for the method and conditions named. Binding seen in cells or lysates may run through a third protein. Some binding calls cover weakened binding; strength is not graded here.

Turning to “glycoprotein (gp) 130 (endogenous, MKN45 cells) (from UniProt P40189 23-918) (receptor)”, the binding result is “binds”.
